Measurements taken from US7282556B2, “Polynucleotides and polypeptides relating to the modulation of SIRPα-CD47” (Emory University, priority 2001, dated 2007).
At least one peptide structure holds a part that was inferred or is arguable (an end, a ring closure or a residue). Some entries repeat one wording, which the source may state once for all of them. Where a SMILES comes first, the peptide text is derived from it. Bridges are numbered along the chain shown (N, C = ends).

Protein sequences, listed by entry. Tags and fused reporters are not part of them. Residues count along the entry.
UniProt P78324, 31-373 limits assumed: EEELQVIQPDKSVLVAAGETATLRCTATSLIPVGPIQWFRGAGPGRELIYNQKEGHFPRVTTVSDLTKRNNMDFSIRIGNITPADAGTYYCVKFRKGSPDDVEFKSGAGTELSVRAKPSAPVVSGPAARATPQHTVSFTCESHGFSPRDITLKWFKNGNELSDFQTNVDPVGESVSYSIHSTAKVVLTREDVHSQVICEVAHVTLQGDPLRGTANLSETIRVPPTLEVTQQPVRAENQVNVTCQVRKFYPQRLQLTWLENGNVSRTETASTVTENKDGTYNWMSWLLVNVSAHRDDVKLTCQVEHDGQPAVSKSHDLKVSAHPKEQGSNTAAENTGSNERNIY

Assays:
[1] = tested on: C5/D5 Fab binding to CD47; experiment: Peptide competition of C5/D5 Fab binding to purified CD47; design: species or system human; conditions: for inhibition of C5/D5 Fab binding to CD47: concentrations up to 10 mM
[2] = biological target: T1, CD47-SIRPα1 binding (CD47-AP / SIRPα1-GST) (Homo sapiens, UniProt P78324); experiment: CD47-AP binding to immobilized SIRPα1-GST (alkaline phosphatase activity); conditions: peptide 2 mM, CD47-AP 1 μg/ml, SIRPα1-GST coated at 1 μg/ml, FIG. 6A
T1 construct: Microtiter plates were coated with SIRPα1 extracellular domain fusion protein (SIRPα1-GST, 1 μg/ml) for 2 hr; A construct consisting of the extracellular domain of human CD47 fused to the catalytic domain of human placental AP; made in house
Experimental: FIG. 2C (right panel) is a bar graph that illustrates CD47-AP specifically binds to SIRPα-GST fusion protein but not SIRPβ-GST. In this panel, microtiter plates were coated with either SIRPα-GST or highly similar SIRPβ-GST (10 μg/ml) followed by blocking with BSA. To each well was then added recombinant CD47-AP followed by washing. Bound CD47-AP was then detected by assay for alkaline phosphatase after addition of appropriate substrate.
FIGS. 6A-6C are graphs that illustrate the effects of synthetic peptides on CD47-SIRPα binding. FIG. 6A illustrates the effect of peptide C5/D5.1 on CD47-SIRPα binding. […] After blocking, CD47-AP was added in the absence or presence of synthetic peptides C5/D5.1 and control peptides C5/D5.4, C5/D5.11 and C5/D5.12 (used as 1 mM each). “*” p<0.01. CD47-AP binding was then detected by assay of alkaline phosphatase activity and normalized with respect to binding in the absence of any peptide (CD47-AP only). FIG. 6B illustrates the effect of dose-dependent inhibition of CD47-SIRPα1 binding by peptide C5/D5.1 performed as in FIG. 6A but with increasing concentrations of peptide as indicated. […] Microtiter plates were coated with peptide C5/D5.1 (2 mM) or BSA. After blocking, coated wells were incubated with either SIRPα1-GST or CD47-AP. Binding of these proteins were detected by a goat anti-GST antibody followed by peroxidase conjugated anti-goat secondary (for detecting SIRPα1-GST) or directly developed for alkaline phosphatase activity (for detecting CD47-AP). All the data represent the mean and standard deviation of triplicate wells.
Since the above results and those of others (Jiang, et al J. Biol. Chem., 274: 559, Seiffert, et al., Blood, 94: 3633, Han, et al., J. Biol. Chem., 275: 37984, Oldenborg, et al., Science, 288: 2051) strongly implicate CD47 as a membrane receptor for SIRPα, experiments were performed to test the direct binding of the IgV loop of CD47 to SIRPα (FIG. 2B). A recombinant CD47 IgV loop fused to alkaline phosphatase (CD47-AP) was constructed as detailed in the methods and expressed in mammalian (CHO) cells in order to allow for proper folding and glycosylation. The expressed CD47-AP fusion protein was then purified by immunoaffinity chromatography using anti CD47 mAb PF3.1-Sepharose. The structure of CD47 IgV domain in the purified CD47-AP was further tested for the ability to react with multiple functionally blocking anti-CD47 extracellular domain-reactive mAbs (Liu, et al., J. Biol. Chem., 276: 40156). To assay CD47-AP binding to SIRPα1, microtiter plates were coated with SIRPα-GST (2 μg/ml), blocked with BSA, followed by incubation with CD47-AP (1-2 μg/ml). Binding of CD47-AP was then assayed by directly measuring alkaline phosphatase (AP) activity. Conversely, wells coated with CD47 or JAM-AP were also assayed for binding with SIRP-GST using appropriate secondary antibodies.
Experiments were conducted to examine this hypothesis by testing the effect of peptide C5/D5.1 in CD47-SIRPα binding. In vitro CD47-SIRPα binding experiments were conducted using the extracellular domain recombinant proteins of SIRPα1 (SIRPα1-GST) and CD47 (CD47-AP) in which SIRPα1-GST fusion protein was immobilized and its binding to CD47 was assessed by incubation with CD47-AP followed by assaying alkaline phosphatase activity (Liu, et al. J. Biol. Chem., 277(12): 10028-36, 2002). […] To examine whether peptide C5/D5.1 could interfere CD47-SIRPα binding, binding assays were performed in the absence or presence of peptide C5/D5.1 and control peptides.
96 well microtiter plates were coated with SIRP-GST fusion protein for 2 h at room temperature (5 μg/ml). After blocking non-specific binding with 1% BSA (in HBSS (+)), monoclonal anti-SIRP antibodies were added at 10 μg/ml followed by incubation at room temperature for 30 min. After washing, the wells were incubated with peroxidase conjugated goat anti-mouse secondary and developed with the substrate ABTS. […]

PMN = PMN transmigration across collagen-coated filters towards fMLP (MPO assay); assay type: cell-based, human; conditions: for PMN transmigrated, % of total applied PMN: 0.5 mM peptide, 2 hr incubation, collagen-coated filters
SIRPα1-GST = biological target: T2, SIRPα1-GST (Homo sapiens, UniProt P78324); experiment: Direct binding of linear CD47 peptides to SIRPα1-GST; conditions: data not shown
T2 construct: recombinant SIRPα1-GST fusion protein (containing the extracellular domain of SIRPα1) was generated as previously described; made in house; host or cells: 293E cells

mAb C5/D5 [3] = experiment: Direct binding of linear CD47 peptides to mAb C5/D5; conditions: data not shown
mAb C5/D5 [4] = experiment: Peptide competition of phage binding to C5/D5 by ELISA
Experimental: To mimic the possible constrained structure in phage, in vitro oxidation was performed after peptide synthesis to introduce disulfide bonds between Cysteine residues in these peptides. […] There are total four tryptophan (W) residues in CD47. W2 is part of the signal peptide and therefore is not present in the mature protein. W58 is present in the N-terminus extracellular IgV-like domain of CD47 and is conserved among many IgV super family members. W136 is also located in the putative extracellular domain whereas W157 is thought to be in a transmembrane region of the protein (Lindberg, et al., J. Cell Biol., 123(2): 485-96, 1993). Amino acids Arginine and Valine (RV/L), present in many selected CL10 and LL9 phages are adjacent in CD47 at amino acid position 132-133, two amino acids upstream from W136. Both amino acids R and V are also found close to W58. Thus, the C5/D5-binding sequence on CD47 is likely to comprise several distant residues brought into proximity by the folding of the protein.
Antibody phage binding assays were performed in microtiter plate wells (Limbro-Titertek, Flow Laboratories) which were coated with relevant antibodies (20 μg/ml) for two hours at room temperature. All subsequent incubations were performed at room temperature. […] Microtiter wells were then analyzed in a microtiter plate reader at 405 nanometers (nm).

Row | Compound | inhibition of CD47-AP binding to SIRPα1-GST [2] | PMN transmigrated, % of total applied PMN (PMN) [%] | inhibition of C5/D5 Fab binding to CD47 [1] | further results
1 | CC[C@H](C)[C@@H]1NC(=O)[C@H](C(C)C)NC(=O)CNC(=O)[C@H](CCCNC(=N)N)NC(=O)[C@H](Cc2c[nH]c3ccccc23)NC(=O)[C@H]([C@@H](C)O)NC(=O)[C@H](CCCNC(=N)N)NC(=O)[C@H](C(C)C)NC(=O)CNC(=O)[C@@H](N)CSSC[C@@H](C(=O)O)NC(=O)[C@H](CCC(=O)O)NC1=O [C5/D5.5, CGVRTWRGVIEC] (H-CGVRTWRGVIEC-OH; disulfide 1-12; N-terminus and C-terminus assumed) | – | – | – | effect on CD47-antibody binding ([1]; up to 2 mM, data not shown): no effect
2 | CC[C@H](C)[C@H](NC(=O)[C@@H](NC(=O)[C@H](CCCNC(=N)N)NC(=O)[C@@H](N)CCC(=O)O)C(C)C)C(=O)NCC(=O)N[C@H](C(=O)NCC(=O)N[C@@H](Cc1c[nH]c2ccccc12)C(=O)N[C@H](C(=O)N[C@@H](CCCNC(=N)N)C(=O)O)C(C)C)[C@@H](C)O [C5/D5.4, ERVIGTGWVR] (H-ERVIGTGWVR-OH; N-terminus and C-terminus assumed) | no inhibition | 39.2±3.1 | no inhibition | inhibition of PMN transmigration (PMN; 1 h migration assay, concentrations greater than 2 mM): only partial inhibition
3 | CC[C@H](C)[C@@H]1NC(=O)[C@H](C(C)C)NC(=O)[C@H](CCCNC(=N)N)NC(=O)[C@H](Cc2c[nH]cn2)NC(=O)[C@@H](N)CSSC[C@@H](C(=O)O)NC(=O)[C@H](CCCNC(=N)N)NC(=O)[C@H](C(C)C)NC(=O)[C@H](Cc2c[nH]c3ccccc23)NC(=O)CNC(=O)[C@H]([C@@H](C)O)NC(=O)CNC1=O [C5/D5.11, CHRVIGTGWVRC] (H-CHRVIGTGWVRC-OH; disulfide 1-12; N-terminus and C-terminus assumed) | no inhibition | 35.4±7.8 | no inhibition | –
4 | CC(C)[C@@H]1NC(=O)[C@H](Cc2c[nH]c3ccccc23)NC(=O)CNC(=O)[C@H](Cc2c[nH]cn2)NC(=O)CNC(=O)[C@@H]2CCCN2C(=O)[C@H](C(C)C)NC(=O)[C@H](CCCNC(=N)N)NC(=O)[C@H](Cc2c[nH]cn2)NC(=O)[C@@H](N)CSSC[C@@H](C(=O)O)NC(=O)[C@H](CCCNC(=N)N)NC1=O [C5/D5.12, CHRVPGHGWVRC] (H-CHRVPGHGWVRC-OH; disulfide 1-12; N-terminus and C-terminus assumed) | no inhibition | 32.3±2.5 | no inhibition | –
5 | CC[C@H](C)[C@H](NC(=O)[C@H](CC(=O)O)NC(=O)[C@H](CCCNC(=N)N)NC(=O)CNC(=O)[C@H](CCCCN)NC(=O)[C@H](Cc1ccccc1)NC(=O)[C@H](CCCCN)NC(=O)[C@H](Cc1c[nH]c2ccccc12)NC(=O)[C@@H](N)CCCCN)C(=O)N[C@@H](Cc1ccc(O)cc1)C(=O)N[C@H](C(=O)O)[C@@H](C)O [KWKFKGRDIYT] (H-KWKFKGRDIYT-OH; N-terminus and C-terminus assumed) | – | – | – | direct binding of linear CD47 peptide to SIRPα1-GST (SIRPα1-GST): only weak binding; direct binding of linear CD47 peptide to mAb C5/D5 (mAb C5/D5 [3]): only weak binding
6 | CSCC[C@H](NC(=O)[C@H](CCCCN)NC(=O)[C@H](CC(C)C)NC(=O)[C@H](CO)NC(=O)[C@H](C)NC(=O)[C@H](CC(=O)O)NC(=O)CN)C(=O)N[C@@H](CC(=O)O)C(=O)N[C@@H](CCCCN)C(=O)N[C@@H](CO)C(=O)O [GDASLKMDKS] (H-GDASLKMDKS-OH; N-terminus and C-terminus assumed) | – | – | – | direct binding of linear CD47 peptide to SIRPα1-GST (SIRPα1-GST): only weak binding; direct binding of linear CD47 peptide to mAb C5/D5 (mAb C5/D5 [3]): only weak binding
7 | CC(C)C[C@@H]1NC(=O)[C@H](CO)NC(=O)[C@H](CCC(N)=O)NC(=O)CNC(=O)[C@H](Cc2ccccc2)NC(=O)[C@H](CO)NC(=O)[C@H](CC(N)=O)NC(=O)[C@H](CCCNC(=N)N)NC(=O)[C@H](Cc2c[nH]c3ccccc23)NC(=O)CNC(=O)[C@@H](N)CSSC[C@@H](C(=O)O)NC1=O [C5/D5.2, CGWRNSFGQSLC] (H-CGWRNSFGQSLC-OH; disulfide 1-12; N-terminus and C-terminus assumed) | – | – | – | concentration range at which peptide competed C5/D5-selected CL10 and CL6 phage binding to C5/D5 (mAb C5/D5 [4]): high concentration (mM range)
